Experimental data taken from the supplement of paper PMC10849652.
The other results are listed elsewhere or left out.

The chains behind the UniProt entries cited, without tags or fusion partners. Where a name states a change or a piece, a line headed by the entry shows the natural chain unless it says otherwise.
UniProt Q12851: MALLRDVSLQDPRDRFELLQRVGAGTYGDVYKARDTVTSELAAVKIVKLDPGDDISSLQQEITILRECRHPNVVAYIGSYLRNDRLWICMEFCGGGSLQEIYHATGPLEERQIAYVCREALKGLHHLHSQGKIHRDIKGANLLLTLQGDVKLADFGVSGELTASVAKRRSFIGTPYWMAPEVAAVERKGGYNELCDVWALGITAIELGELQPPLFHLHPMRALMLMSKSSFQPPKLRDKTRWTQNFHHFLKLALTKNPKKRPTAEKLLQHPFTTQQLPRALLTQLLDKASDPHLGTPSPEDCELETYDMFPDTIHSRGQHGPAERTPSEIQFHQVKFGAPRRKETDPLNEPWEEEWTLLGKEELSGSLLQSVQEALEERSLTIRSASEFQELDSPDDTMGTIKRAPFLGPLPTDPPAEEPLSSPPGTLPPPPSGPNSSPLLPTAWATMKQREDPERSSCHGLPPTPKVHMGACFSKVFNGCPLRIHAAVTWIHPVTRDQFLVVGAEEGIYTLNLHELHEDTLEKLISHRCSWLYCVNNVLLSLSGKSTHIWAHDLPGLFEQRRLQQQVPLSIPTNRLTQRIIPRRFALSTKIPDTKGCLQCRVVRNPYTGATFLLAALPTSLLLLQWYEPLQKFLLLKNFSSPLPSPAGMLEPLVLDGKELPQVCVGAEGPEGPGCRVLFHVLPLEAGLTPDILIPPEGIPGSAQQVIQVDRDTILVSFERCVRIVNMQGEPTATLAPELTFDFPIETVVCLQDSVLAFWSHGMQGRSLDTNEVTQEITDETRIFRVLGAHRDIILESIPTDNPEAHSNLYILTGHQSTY
UniProt Q8IWC1: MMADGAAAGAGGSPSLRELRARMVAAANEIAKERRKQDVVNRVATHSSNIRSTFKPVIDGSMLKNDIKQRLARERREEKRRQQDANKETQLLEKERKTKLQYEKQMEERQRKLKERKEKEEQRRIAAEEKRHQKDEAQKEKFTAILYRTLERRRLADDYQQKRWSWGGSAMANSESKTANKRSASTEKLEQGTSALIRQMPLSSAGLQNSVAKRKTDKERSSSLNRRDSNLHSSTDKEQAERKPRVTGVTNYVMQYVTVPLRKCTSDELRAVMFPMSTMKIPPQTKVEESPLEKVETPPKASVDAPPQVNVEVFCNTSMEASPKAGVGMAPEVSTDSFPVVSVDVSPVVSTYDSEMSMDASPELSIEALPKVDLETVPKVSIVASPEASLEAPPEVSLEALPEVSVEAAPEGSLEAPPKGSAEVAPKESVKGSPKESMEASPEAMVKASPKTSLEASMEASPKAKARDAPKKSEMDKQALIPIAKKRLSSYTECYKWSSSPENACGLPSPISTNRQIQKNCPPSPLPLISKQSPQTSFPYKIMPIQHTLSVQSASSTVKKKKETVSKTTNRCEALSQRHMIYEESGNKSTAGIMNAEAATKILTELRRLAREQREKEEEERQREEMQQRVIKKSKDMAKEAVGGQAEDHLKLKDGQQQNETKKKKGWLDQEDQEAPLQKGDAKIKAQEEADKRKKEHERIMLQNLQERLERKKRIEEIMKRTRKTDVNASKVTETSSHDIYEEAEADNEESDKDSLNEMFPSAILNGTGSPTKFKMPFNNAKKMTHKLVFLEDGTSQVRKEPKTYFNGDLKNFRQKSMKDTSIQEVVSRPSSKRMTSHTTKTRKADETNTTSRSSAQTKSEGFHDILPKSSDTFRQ
UniProt Q8WVR3: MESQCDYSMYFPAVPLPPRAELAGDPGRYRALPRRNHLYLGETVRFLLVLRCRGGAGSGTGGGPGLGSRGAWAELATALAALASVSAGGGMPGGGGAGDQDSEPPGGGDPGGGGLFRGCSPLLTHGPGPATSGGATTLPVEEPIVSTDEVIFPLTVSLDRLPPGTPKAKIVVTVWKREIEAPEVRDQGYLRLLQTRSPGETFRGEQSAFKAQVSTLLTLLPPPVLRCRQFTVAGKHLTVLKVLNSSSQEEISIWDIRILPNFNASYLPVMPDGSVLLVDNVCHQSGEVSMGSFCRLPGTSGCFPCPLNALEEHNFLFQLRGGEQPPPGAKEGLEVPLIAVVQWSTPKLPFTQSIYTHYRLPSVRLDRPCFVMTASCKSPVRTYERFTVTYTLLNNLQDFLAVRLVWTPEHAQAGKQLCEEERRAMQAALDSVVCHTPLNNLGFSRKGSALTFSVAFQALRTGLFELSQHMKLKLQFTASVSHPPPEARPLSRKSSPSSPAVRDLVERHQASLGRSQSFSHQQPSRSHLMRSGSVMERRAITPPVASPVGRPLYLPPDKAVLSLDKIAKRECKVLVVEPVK

Key:
Experiment in all cases: log2 fold change, soluble protein after heating vs DMSO (PISA); higher = thermal stabilisation; K562 cells, 10 uM, 30 min; active = over 0.2 and 3.5 SD of the protein, either way, in both replicates (recomputed)
[1] = compound: C1=CC=C(C=C1)[C@H](COC2=CC3=C(C=C2)NC(=O)N3)NC(=O)C4=CC=CN(C4=O)CC5=CC(=C(C=C5)F)F
Summary of the method: (§1)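 For each measurement, 10 μM compound was applied for 30 min to K562 cells at 2×10^6 cells/mL. Aliquots were heated for 3 min across 48°C-58°C, pooled, and extracted in PBS with 0.5% NP-40 at 4°C; the supernatant after 21,000xg for 90 min was soluble protein. This was quantified by TMTpro 16plex LC-MS/MS with channel sums equalised, and thermal stability was reported relative to control samples from duplicates, on a log2 fold-change scale.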

[2] = compound: CC1=C(SC2=C1C(=N[C@H](C3=NN=C(N32)C)CC(=O)N)C4=CC=C(C=C4)Cl)C
Summary of the method: as §1

[3] = compound: Cc1sc2c(c1C)C(c1ccc(Cl)cc1)=N[C@@H](CC(=O)OC(C)(C)C)c1nnc(C)n1-2
Summary of the method: as §1

[4] = compound: c1ccc([C@@H]2C[C@H]2NC2CCNCC2)cc1
Summary of the method: as §1

[5] = compound: CC1=C2C(=CC=C1)N=C(N(C2=O)C3=CC=CC=C3C)CN4C=NC5=C(N=CN=C54)N
Summary of the method: as §1

Measured: log2 fold change

MAP4K2 (UniProt Q12851)
inactive: [1] -0.08 | [2] 0.063 | [3] -0.057 | [4] 0

MAP7D3 (UniProt Q8IWC1)
inactive: [1] 0.01 | [2] -0.264 | [4] 0.097

MAP11 (UniProt Q8WVR3)
inactive: [1] -0.044 | [2] 0.001 | [5] 0.021 | [4] 0.124
